# Test results reported in PMC9161857.
# Sequences of proteins named here, by UniProt entry; tags and fusion partners are left off.
# UniProt Q13619: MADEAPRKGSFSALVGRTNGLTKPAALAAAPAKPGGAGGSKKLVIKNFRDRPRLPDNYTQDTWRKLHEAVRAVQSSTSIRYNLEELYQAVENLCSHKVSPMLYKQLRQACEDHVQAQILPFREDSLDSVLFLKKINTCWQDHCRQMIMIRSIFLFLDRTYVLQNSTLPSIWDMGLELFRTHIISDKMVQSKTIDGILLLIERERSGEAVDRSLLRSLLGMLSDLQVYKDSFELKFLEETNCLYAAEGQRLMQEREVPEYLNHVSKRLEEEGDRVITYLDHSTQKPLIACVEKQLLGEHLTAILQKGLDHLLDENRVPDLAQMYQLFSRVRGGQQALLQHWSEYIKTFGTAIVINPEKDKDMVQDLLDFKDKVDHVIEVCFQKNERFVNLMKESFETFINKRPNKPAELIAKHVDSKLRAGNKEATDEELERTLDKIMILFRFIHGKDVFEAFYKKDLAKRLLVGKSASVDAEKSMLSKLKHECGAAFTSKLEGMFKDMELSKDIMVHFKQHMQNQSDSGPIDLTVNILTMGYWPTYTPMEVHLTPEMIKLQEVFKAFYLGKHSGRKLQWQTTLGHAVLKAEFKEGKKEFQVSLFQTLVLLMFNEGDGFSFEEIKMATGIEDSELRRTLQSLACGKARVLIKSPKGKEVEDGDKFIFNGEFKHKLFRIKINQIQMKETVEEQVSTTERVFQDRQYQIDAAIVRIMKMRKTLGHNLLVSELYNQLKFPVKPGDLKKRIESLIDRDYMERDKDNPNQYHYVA
# UniProt O14744: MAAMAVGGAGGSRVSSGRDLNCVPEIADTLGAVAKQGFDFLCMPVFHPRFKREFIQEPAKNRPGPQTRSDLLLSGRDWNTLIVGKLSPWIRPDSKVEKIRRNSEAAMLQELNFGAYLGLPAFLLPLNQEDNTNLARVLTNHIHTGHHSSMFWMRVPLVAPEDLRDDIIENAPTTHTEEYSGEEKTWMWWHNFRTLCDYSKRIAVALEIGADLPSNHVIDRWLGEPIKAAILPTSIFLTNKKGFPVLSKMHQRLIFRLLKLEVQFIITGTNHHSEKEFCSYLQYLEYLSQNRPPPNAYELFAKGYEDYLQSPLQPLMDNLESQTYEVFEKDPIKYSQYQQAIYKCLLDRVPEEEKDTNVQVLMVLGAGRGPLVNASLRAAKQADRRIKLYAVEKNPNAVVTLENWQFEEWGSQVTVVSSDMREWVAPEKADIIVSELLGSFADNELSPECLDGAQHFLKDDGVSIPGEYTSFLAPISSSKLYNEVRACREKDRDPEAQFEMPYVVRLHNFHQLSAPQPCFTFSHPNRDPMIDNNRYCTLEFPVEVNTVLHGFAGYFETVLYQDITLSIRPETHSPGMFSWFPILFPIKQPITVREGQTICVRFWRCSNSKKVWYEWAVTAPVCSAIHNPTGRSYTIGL
# These are yes or no findings as the source states them, for the method shown. Binding seen in cells or lysates may run through a third protein. Some results given as binding are weak or reduced against the parent protein; the word gives no strength.
# Target: Cullin 4A (human (endogenous in C666-1)) (UniProt Q13619)
# Assay: co-IP; cell lysate (500 µg per IP) with 2.5 µg CUL4A or PRMT5 antibody and protein A + G magnetic beads, room temperature, 2 h; western blotting
substance,measurement,value
protein arginine methyltransferase 5 (from UniProt O14744 1-637),binding,binds
